## Results of single-concentration screens

From ChEMBL document CHEMBL3988442, “University of Dundee, Small-Polar-MMV Screening Library” (2021).

Mtb cholesterol medium: 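Whole-cell growth test on Mycobacterium tuberculosis, read after 4 days in a medium based on cholesterol and the lipid DPPC; the read-out is not stated. Concentration: 50 µM. Direction is inferred from retests: higher values go with more growth inhibition. Size under these conditions: about 69,000 compounds, about 370 of them at 50% or above in at least one test.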
Mtb glucose medium: 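Growth of Mycobacterium tuberculosis over 3 days (7H9 medium with glucose and tyloxapol); the read-out is not stated. Concentration: 50 µM. Direction is inferred from retests: higher values go with more growth inhibition. About 69,000 compounds were tested under these conditions; 1.1% (about 760) showed 50% or more at least once.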

Values are the deposited “Percent Effect”, in %.
How 0% and 100% were set is not recorded. Most values in the screen are low, and negative values occur.
This is an unselected part of the compounds tested.
Two or more numbers in one place are separate tests of the same structure; such repeats can differ widely.

| Compound | Mtb cholesterol medium | Mtb glucose medium |
|---|---|---|
| `Cc1ccc(-c2nc(CNC3CCc4ncnn4C3)cs2)cc1` (stereo unspecified) | 15.96 | 24.08 |
| `O=C(NCCN1CCOCC1)NCc1cccnc1-n1cccn1` | -23.12 | -1.686 |
| `OCCN1CCN(Cc2coc(-c3ccc(Cl)cc3)n2)CC1` | -12.81 | 9.524 |
| `COc1cc(CNC(C)Cn2cccn2)cc(OC)c1` (stereo unspecified) | 1.424 | 4.179 |
| `CN(C)Cc1cc(CC2(NCc3ccccc3Cl)COC2)no1` | -4.4 | 9.165 and -1.617 |
| `Cc1ncccc1NC(=O)C1=NOC2(CCN(Cc3nccs3)C2)C1` (stereo unspecified) | -0.7423 | 11.46 |
| `CN(Cc1ccc(F)cc1F)CC(C)(CO)CO` | 7.516 and 5.455 | 19.02 |
| `Nc1nc(N)c2c(n1)OC1(CCN(C(=O)CC3CCCNC3)CC1)C2` (stereo unspecified) | -9.12 and -3.644 | -21.36 |
| `COc1ccccc1-c1ncc(CN2CCCC[C@H](N(C)C)C2)s1` | 4.366 | 50.2 |
| `CC(C)COC(=O)N1[C@@H](c2ccco2)[C@@H](CO)C[C@]12CCCCNC2=O` | 11.42 | 6.868 |
| `O=C(NCC1CCCO1)c1cc(-c2ccc3c(c2)CCO3)n[nH]1` (stereo unspecified) | -34.67 | 19.83 |
| `CNC(=O)c1cc2c(nc1N(C)C)CCN(S(=O)(=O)CC(C)C)CC2.O=C(O)C(F)(F)F` | 21.29 | 35.43 |
| `CCN1CCN(C(=O)CCC2CCN(C(C)CCC(=O)OC)CC2)CC1` (stereo unspecified) | 2.596 | -5.5 |
| `Cn1ccnc1CN1CCN(Cc2cc(-c3ccccc3)no2)CC1` | 6.161 | 2.424 and 3.638 |
| `CC(C)N1C[C@@H](F)[C@@H](OCc2nc3ncccc3[nH]2)C1` | -18.32 | -22.74 and -6.682 |
| `COc1c(C2CCCN2Cc2nnc(C3CC3)o2)c(C)nn1C` (stereo unspecified) | -6.365 | 8.265 |
| `Cn1ccc2ccc(C(=O)Nc3nc[nH]n3)cc21` | -12.08 | 2.647 |
| `O=C(Cn1cccnc1=O)NC(Cc1cccs1)c1ccccn1` (stereo unspecified) | -19.99 | -4.391 |
| `[H][C@@]12CCN(Cc3cc(C)on3)C[C@@]1([H])O[C@@H](c1nc(C)cs1)C2` | 14.91 | 20.31 |
| `O=S(=O)(C1CC1)N1CCOC2(CCCN(c3ccccc3)C2)C1` (stereo unspecified) | -27.15 | -8.094 and -9.876 |
| `[H][C@]12CCN(S(=O)(=O)c3ccc(F)cc3)C[C@@]1([H])OCCN(C(C)=O)C2` | 4.226 | 13.14 |
| `Cc1noc(C)c1C(C)C(=O)N1CCCN(C)c2ccc(Cl)cc21` (stereo unspecified) | 13.01 | 19.37 |
| `O=C(O)C(F)(F)F.O=C(O)C(F)(F)F.O=C(O)C(F)(F)F.[H][C@@]12CO[C@@H](CN3CCN(C)CC3)[C@]1([H])CCN(Cc1ccsc1)C2` | 5.919 | 6.173 |
| `Cc1sc(CNS(N)(=O)=O)nc1-c1ccc(Cl)cc1` | 3.266 | 1.64 |
| `[H][C@]12CN(Cc3cccc(OC)c3)CCN1C(=O)N(CCOC)C2` | -3.935 | 2.95 and 4.726 |
| `[H][C@]12C[C@H](NC(=O)c3ccnn3C)[C@@]1([H])CN(S(=O)(=O)c1ccc(C)cc1)C2` | 11.63 | 6.687 |
| `CN1CCCC(C(=O)N2CCC(Oc3ncccn3)CC2)C1` (stereo unspecified) | 7.014 | 0.2561 and 0.901 |
| `O=C(NC1CCN(c2ccccc2OC(F)F)C1)c1c[nH]nn1` (stereo unspecified) | 1.171 | 16.22 |
| `[H][C@@]12CCN(S(C)(=O)=O)[C@]1([H])CC[C@H](c1nc(C)no1)O2` | 1.286 and 2.334 | -9.217 |
| `O=C(Nc1ccccc1)C1=CC2(CCNCC2)c2ccccc21` | 22.15 | 15.22 |
| `Cc1cccc(N2CCN(C(=O)CN3CCC(C(N)=O)CC3)CC2)c1` | 7.896 and -4.431 | 21.72 |
| `[H][C@@]12CCN(C(=O)COC)C[C@@]1([H])O[C@@H](c1nc(C)no1)C2` | -20.2 | 16.8 |
| `N#Cc1ccnc(N2CCN(CC(O)c3ccccc3)CC2)c1` (stereo unspecified) | -6.053 | 15.49 |
| `CCn1ccnc1CN1CCN(CC(O)c2ccccc2)CC1` (stereo unspecified) | -3.705 | -29.25 |
| `COC(=O)CNCC1(O)CCCN(Cc2cccc(F)c2F)C1=O` (stereo unspecified) | 2.168 | 3.804 |
| `CNc1ccnc(N(C)Cc2cc(-c3cccs3)n[nH]2)n1` | 2.283 and -15.02 | -4.737 |
| `CCn1ccnc1CN1CCCN(C(=O)c2ccsc2)CC1` | 9.079 | 23.43 |
| `O=C1CCCN1CCN1CCC(c2ccn[nH]2)CC1` | -21.92 | -20.56 |
| `[H][C@]12C[C@@H](Cn3cncn3)N(C(C)=O)[C@@]1([H])CCN(Cc1nccs1)C2` | -18.76 | -16.05 and -8.945 |
| `O=C(Cc1cccs1)Nc1cnn(C2CCOCC2)c1` | -0.03039 | -14.08 |
| `CCc1nnc2n1CCN(Cc1nc(-c3ccoc3)no1)C2` | -4.189 | -13.38 |
| `COCCN1CCN(S(C)(=O)=O)Cc2ccc(C)nc21.O=C(O)C(F)(F)F` | 2.439 | 5.177 and -7.106 |
| `[H][C@@]12CN(C3CCOCC3)C[C@]1([H])OCC(=O)N2Cc1ccccn1` | -18.29 | -20.14 and -2.28 |
| `COCCN1CCN(Cc2ccc(OCc3nccn3C)cc2)CC1` | -11.3 | -14.53 |
| `O=C(O)C(F)(F)F.O=C(O)C(F)(F)F.c1ccc(CN2CCc3ncnc(-c4ccncc4)c3CC2)nc1` | -20.84 | -12.11 |
| `CCN(CC)C(=O)CNC(=O)c1ccc(-c2ccsc2)nc1C` | 3.621 | -24.49 |
| `O=C(NCc1ccco1)c1cc[n+]([O-])cc1` | 16.01 and 9.244 | 0.3186 |
| `COCCN1C2(CCN(Cc3nccs3)C2)c2ccccc2S1(=O)=O.O=C(O)C(F)(F)F` (stereo unspecified) | 6.157 and -6.034 | 5.758 |
| `CN(C)c1ccc(-c2ccnc3c2ccn3C)nn1` | -27.32 | -9.388 |
| `CC(O)CN1CCC(CNCc2ccccc2Br)CC1` (stereo unspecified) | 17.84 | 4.193 |
| `COCCn1ccc2c(C(=O)NC3CN4CCC3CC4)cccc21` (stereo unspecified) | -12.37 | 18.61 |
| `Cc1nccn1C1CCCN(C(=O)C2=NN(C)C(=O)CC2)C1` (stereo unspecified) | -19.6 | -19.77 |
| `[H][C@@]12C[C@H](C(=O)N3CCCC3)[C@@]([H])(CN(C(=O)NC(C)C)C1)O2` | -14.48 | -33.72 |
| `Cc1noc(C)c1CN(C)CC1CC(C2CCCCC2)=NO1` (stereo unspecified) | 1.259 | 7.071 |
| `Cc1cc(NCC(C)C)ccc1C(=O)N(C)C` | -13.26 | 31.47 |
| `CCN(Cc1ccccc1)C(=O)CN1CCOC(Cn2cncn2)C1` (stereo unspecified) | -24.15 | -41.85 |
| `CN(CC(=O)NCc1cc2ccccc2o1)S(C)(=O)=O` | -17.94 | -30.97 |
| `CCS(=O)(=O)N1CCCn2nnc(CNC(C)=O)c2C1` | -33.84 | -23.84 |
| `CN(Cc1csc(-c2cccs2)n1)C(=O)CN1CCOC1=O` | 11.11 | 12.26 |
| `CNC(=O)c1cccc(NCCOc2ccc(CC#N)cc2)c1C` | -23.19 | -14.11 |
| `COCC1CCN(C(=O)c2cccc(S(=O)(=O)NC3CCCC3)c2)C1` (stereo unspecified) | 4.787 | 22.01 |
| `COCC1CC2(CCN(Cc3cccnc3)CC2)CN1c1ncccn1.O=C(O)C(F)(F)F.O=C(O)C(F)(F)F.O=C(O)C(F)(F)F` (stereo unspecified) | -6.091 | -4.332 and -11.91 |
| `O=C(O)C(F)(F)F.[H][C@]12CCCC(N(C)Cc3cccs3)[C@@]1([H])CN(C(N)=O)C2` (stereo partly specified) | -2.737 | -3.4 and -5.624 |
| `CCCNC(=O)C1CCCN(Cc2csc(C(C)(C)C)n2)C1` (stereo unspecified) | -17.72 | -9.114 |
| `COC(C)c1cccc(NCc2ccsc2)c1` (stereo unspecified) | 17.09 | 18.89 |
| `[H][C@@]12CN(CCc3ccccc3)C[C@]1([H])OCCN2c1ncccn1` | -4.476 | 18.8 |
| `COc1ccc(C)cc1-n1cnnc1C1CCOCC1` | -1.68 | -4.64 |
| `CC(=O)N(Cc1noc(C)n1)C1CCN(Cc2cccc(C#N)c2)C1` (stereo unspecified) | -14.04 | -2.933 |
| `CC1COCCN1C(=O)NCCn1ccnc1` (stereo unspecified) | 6.181 | 5.392 |
| `CCN(CC)Cc1ccc(C(=O)NC2CCc3cc(F)ccc32)o1` (stereo unspecified) | 5.545 | 3.481 |
| `CN1CC2(CCCCN2C(=O)c2ccsc2)CC1=O` (stereo unspecified) | -3.108 and -17.21 | 8.144 |
| `COCCN1CC(=O)c2sc(NC(C)C)nc2C1` | -16.24 | -21.91 |
| `Cn1nc(COCC2CC2)c2c1CCN(Cc1cccs1)C2.O=C(O)C(F)(F)F` | -1.224 | -3.027 |
| `O=C(Cc1cccc(F)c1)N1CCn2cc(Cn3cccn3)nc2C1.O=C(O)C(F)(F)F` | -7.662 and -11.45 | -31.56 |
| `CC(=O)Nc1ncc(-c2ccc(C)cc2)[nH]1` | 7.368 | -8.759 |
| `CC(=O)Nn1c(C)cc(CN2CCC(C(=O)N3CCCC3)CC2)c1C` | -13.94 and -3.835 | 14.04 |
| `CC(=O)c1ccc(S(=O)(=O)NCC2CCN(c3cnccn3)CC2)cc1` | -2.884 | 16 |
| `Cn1nnc2c1C(COCc1cccnc1)CN(Cc1ccoc1)C2.O=C(O)C(F)(F)F.O=C(O)C(F)(F)F` (stereo unspecified) | 2.736 | 17.04 |
| `CCN(CCO)C(=O)C1CCC(=O)N(Cc2cccc(OC)c2)C1` (stereo unspecified) | 3.974 | 24.2 |
| `CCn1cc(CN2CCCN(C(=O)c3ccn(C)c(=O)c3)CC2)cn1` | -5.629 | -3.018 |
| `CCS(=O)(=O)c1ccccc1C(=O)NCc1ccnc(N(C)C)c1` | -9.932 | 15.17 |
| `O=C1N(Cc2ccc(F)c(F)c2)CCCC12CCN(C1CCCCC1)C2` (stereo unspecified) | 53.46 | 66.83 and 72.71 |

10 of the entries, repeated:

Compound	Mtb cholesterol medium	Mtb glucose medium
Cc1noc(C)c1C(C)C(=O)N1CCCN(C)c2ccc(Cl)cc21 (stereo unspecified)	13.01	19.37
COc1cc(CNC(C)Cn2cccn2)cc(OC)c1 (stereo unspecified)	1.424	4.179
CN1CC2(CCCCN2C(=O)c2ccsc2)CC1=O (stereo unspecified)	-3.108 and -17.21	8.144
Cc1cc(NCC(C)C)ccc1C(=O)N(C)C	-13.26	31.47
CNC(=O)c1cc2c(nc1N(C)C)CCN(S(=O)(=O)CC(C)C)CC2.O=C(O)C(F)(F)F	21.29	35.43
Cn1nc(COCC2CC2)c2c1CCN(Cc1cccs1)C2.O=C(O)C(F)(F)F	-1.224	-3.027
CCS(=O)(=O)N1CCCn2nnc(CNC(C)=O)c2C1	-33.84	-23.84
CC(C)N1C[C@@H](F)[C@@H](OCc2nc3ncccc3[nH]2)C1	-18.32	-22.74 and -6.682
COCC1CCN(C(=O)c2cccc(S(=O)(=O)NC3CCCC3)c2)C1 (stereo unspecified)	4.787	22.01
O=C(NCc1ccco1)c1cc[n+]([O-])cc1	16.01 and 9.244	0.3186